Laboratory results taken from article PMC9758165.
No constants are given. Whether binding was seen depends on the method and setting. Binding seen in cells or lysates may run through a third protein. Some entries that bind do so weakly or less than the wild type.

The chains behind the UniProt entries cited, without tags or fusion partners.
UniProt O96019: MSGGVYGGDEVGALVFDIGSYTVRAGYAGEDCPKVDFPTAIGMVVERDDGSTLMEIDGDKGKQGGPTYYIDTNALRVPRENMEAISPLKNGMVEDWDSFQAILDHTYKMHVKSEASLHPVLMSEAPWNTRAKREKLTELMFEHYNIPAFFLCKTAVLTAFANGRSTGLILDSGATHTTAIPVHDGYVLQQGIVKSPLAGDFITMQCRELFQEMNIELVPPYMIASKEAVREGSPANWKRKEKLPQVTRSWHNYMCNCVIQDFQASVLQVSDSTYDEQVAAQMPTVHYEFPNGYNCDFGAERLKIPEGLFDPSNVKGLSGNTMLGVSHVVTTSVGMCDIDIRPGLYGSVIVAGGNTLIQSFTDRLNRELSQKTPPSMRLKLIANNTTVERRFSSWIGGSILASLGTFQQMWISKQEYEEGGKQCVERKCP

Molecular target: BAF53A (human (endogenous in DLD1)) (UniProt O96019)
Assay: co-IP; DLD1 cell lysate (50 mM Tris-Cl pH 7.5, 0.1% NP-40, 0.1% Triton-100, 150 mM NaCl, 0.1 M EDTA) incubated with BAF53A antibody or control IgG at 4 °C overnight, protein A/G agarose beads, immunoblot

B1: P63 (protein, UniProt Q9H3D4 1-680)
chain: MNFETSRCATLQYCPDPYIQRFVETPAHFSWKESYYRSTMSQSTQTNEFLSPEVFQHIWDFLEQPICSVQPIDLNFVDEPSEDGATNKIEISMDCIRMQDSDLSDPMWPQYTNLGLLNSMDQQIQNGSSSTSPYNTDHAQNSVTAPSPYAQPSSTFDALSPSPAIPSNTDYPGPHSFDVSFQQSSTAKSATWTYSTELKKLYCQIAKTCPIQIKVMTPPPQGAVIRAMPVYKKAEHVTEVVKRCPNHELSREFNEGQIAPPSHLIRVEGNSHAQYVEDPITGRQSVLVPYEPPQVGTEFTTVLYNFMCNSSCVGGMNRRPILIIVTLETRDGQVLGRRCFEARICACPGRDRKADEDSIRKQQVSDSTKNGDGTKRPFRQNTHGIQMTSIKKRRSPDDELLYLPVRGRETYEMLLKIKESLELMQYLPQHTIETYRQQQQQQHQHLLQKQTSIQSPSSYGNSSPPLNKMNSMNKLPSVSQLINPQQRNALTPTTIPDGMGANIPMMGTHMPMAGDMNGLSPTQALPPPLSMPSTSHCTPPPPYPTDCSIVSFLARLGCSSCLDYFTTQGLTTIYQIEHYSMDDLASLKIPEQFRHAIWKGILDHRQLHEFSSPSHLLRTPSSASTVSVGSSETRGERVIDAVRFTLRQTISFPPRDEWNDFNFDMDARRNKQQRIKEEGE
Question: Which binding does the source give for B1 here?
Answer: binds
